# This is one part of the list.
# By UniProt entry, the sequences of proteins in these tests, tags left out. Where a name states a change or a piece, a line headed by the entry shows the natural chain unless it says otherwise.
# UniProt Q7Z7K6: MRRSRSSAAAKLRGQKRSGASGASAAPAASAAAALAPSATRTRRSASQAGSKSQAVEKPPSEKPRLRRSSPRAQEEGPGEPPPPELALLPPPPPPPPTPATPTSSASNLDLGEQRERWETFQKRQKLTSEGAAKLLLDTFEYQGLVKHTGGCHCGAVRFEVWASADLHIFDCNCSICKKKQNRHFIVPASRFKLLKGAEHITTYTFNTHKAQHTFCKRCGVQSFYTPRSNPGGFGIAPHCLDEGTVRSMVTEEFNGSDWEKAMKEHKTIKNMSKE
# UniProt Q9Y232: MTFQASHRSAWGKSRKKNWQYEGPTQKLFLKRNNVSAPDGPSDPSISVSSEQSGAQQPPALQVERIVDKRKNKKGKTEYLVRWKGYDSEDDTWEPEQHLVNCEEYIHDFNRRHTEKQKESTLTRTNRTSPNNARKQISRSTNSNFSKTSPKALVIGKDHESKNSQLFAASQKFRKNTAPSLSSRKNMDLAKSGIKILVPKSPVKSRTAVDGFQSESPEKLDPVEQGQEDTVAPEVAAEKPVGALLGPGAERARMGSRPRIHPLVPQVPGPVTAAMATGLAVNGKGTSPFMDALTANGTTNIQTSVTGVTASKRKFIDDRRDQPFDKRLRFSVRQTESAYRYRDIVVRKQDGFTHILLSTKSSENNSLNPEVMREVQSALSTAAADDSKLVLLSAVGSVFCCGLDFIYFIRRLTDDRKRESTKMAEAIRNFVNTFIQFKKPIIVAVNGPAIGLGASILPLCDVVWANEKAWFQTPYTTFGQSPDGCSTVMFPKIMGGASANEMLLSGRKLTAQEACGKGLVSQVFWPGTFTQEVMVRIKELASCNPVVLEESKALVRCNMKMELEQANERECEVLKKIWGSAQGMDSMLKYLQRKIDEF
# UniProt P50991: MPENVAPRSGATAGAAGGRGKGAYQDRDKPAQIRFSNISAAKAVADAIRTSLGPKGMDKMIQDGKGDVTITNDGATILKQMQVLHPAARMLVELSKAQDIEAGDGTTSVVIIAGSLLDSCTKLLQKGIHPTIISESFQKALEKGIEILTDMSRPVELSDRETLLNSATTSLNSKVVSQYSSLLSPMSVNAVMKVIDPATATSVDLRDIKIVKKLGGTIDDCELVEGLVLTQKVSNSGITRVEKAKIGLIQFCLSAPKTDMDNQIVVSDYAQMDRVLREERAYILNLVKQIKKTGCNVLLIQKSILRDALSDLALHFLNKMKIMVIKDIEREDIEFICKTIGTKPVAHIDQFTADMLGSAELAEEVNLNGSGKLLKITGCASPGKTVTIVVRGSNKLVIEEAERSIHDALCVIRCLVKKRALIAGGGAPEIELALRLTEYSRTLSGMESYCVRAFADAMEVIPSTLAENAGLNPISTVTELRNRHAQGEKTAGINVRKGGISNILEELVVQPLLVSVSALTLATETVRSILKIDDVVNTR
# UniProt Q00535, whole entry, looked up: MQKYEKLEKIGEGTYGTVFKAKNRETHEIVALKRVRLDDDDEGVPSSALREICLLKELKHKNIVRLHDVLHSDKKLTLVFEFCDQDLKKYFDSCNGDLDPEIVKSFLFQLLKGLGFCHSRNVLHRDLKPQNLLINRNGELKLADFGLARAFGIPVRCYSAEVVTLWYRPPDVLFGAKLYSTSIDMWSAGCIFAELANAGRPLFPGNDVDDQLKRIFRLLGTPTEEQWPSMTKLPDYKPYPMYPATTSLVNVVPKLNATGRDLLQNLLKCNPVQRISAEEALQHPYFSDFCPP
# UniProt Q69YH5: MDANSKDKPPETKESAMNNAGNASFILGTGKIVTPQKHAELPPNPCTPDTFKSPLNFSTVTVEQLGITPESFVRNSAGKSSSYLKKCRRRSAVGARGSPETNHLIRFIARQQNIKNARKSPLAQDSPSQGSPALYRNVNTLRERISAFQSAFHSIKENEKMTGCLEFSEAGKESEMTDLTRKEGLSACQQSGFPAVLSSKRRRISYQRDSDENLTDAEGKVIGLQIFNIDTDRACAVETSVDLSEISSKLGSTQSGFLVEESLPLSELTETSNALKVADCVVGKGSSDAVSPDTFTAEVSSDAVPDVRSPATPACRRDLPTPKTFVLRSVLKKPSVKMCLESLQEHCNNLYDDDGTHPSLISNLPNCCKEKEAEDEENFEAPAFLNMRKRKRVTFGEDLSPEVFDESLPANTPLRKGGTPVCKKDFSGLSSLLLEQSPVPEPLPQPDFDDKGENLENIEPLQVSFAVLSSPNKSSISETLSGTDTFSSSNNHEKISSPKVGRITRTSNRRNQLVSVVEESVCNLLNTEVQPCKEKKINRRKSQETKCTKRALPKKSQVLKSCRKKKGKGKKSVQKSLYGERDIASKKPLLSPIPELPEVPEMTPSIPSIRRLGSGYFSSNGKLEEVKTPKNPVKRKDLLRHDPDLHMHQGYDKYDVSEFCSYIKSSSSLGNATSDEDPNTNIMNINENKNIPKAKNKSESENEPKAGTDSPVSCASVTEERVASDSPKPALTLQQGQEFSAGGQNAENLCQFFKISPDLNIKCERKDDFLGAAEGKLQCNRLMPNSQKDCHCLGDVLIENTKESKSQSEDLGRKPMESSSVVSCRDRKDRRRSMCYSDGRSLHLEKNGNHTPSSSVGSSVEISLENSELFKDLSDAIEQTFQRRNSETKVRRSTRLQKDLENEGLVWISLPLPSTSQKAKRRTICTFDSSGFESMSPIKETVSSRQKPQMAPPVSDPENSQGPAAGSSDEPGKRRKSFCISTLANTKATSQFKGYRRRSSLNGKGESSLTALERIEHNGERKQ
# UniProt Q99832: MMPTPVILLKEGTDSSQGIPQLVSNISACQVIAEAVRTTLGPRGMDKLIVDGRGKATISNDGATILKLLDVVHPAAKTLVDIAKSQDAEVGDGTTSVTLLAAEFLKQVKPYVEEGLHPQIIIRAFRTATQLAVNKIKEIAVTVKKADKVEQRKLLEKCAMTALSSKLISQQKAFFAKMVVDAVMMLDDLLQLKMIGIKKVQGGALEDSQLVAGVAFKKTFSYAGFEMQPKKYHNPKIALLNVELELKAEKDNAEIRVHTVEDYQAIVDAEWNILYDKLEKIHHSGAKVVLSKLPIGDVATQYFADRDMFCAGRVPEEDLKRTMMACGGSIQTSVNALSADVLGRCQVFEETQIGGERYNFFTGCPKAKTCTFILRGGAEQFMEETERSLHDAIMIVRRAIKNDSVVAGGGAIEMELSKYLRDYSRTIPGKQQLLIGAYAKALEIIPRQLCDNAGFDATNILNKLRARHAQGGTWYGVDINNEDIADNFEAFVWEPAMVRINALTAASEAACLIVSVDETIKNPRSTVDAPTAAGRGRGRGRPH
# UniProt P30260, whole entry, looked up: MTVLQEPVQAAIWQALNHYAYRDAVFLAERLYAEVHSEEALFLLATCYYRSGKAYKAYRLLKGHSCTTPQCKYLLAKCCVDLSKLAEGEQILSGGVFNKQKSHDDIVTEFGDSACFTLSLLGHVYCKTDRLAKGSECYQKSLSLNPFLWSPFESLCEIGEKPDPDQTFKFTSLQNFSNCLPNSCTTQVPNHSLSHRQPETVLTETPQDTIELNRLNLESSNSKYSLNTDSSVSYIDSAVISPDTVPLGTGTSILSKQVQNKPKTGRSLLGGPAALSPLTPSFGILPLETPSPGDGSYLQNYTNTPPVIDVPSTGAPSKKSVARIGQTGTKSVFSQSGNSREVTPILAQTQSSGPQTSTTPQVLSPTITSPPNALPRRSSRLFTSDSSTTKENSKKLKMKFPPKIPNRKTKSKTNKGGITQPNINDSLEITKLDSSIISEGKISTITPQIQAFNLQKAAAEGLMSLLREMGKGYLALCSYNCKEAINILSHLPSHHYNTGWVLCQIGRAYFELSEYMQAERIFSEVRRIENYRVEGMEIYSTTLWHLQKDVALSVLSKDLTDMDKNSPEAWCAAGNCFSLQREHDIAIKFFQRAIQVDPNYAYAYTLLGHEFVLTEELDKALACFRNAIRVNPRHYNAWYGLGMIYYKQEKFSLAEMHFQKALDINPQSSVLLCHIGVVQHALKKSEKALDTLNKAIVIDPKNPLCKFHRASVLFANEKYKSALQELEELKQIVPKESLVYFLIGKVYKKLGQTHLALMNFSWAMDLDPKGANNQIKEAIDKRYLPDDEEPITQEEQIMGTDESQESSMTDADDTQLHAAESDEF
# UniProt Q9UPN4: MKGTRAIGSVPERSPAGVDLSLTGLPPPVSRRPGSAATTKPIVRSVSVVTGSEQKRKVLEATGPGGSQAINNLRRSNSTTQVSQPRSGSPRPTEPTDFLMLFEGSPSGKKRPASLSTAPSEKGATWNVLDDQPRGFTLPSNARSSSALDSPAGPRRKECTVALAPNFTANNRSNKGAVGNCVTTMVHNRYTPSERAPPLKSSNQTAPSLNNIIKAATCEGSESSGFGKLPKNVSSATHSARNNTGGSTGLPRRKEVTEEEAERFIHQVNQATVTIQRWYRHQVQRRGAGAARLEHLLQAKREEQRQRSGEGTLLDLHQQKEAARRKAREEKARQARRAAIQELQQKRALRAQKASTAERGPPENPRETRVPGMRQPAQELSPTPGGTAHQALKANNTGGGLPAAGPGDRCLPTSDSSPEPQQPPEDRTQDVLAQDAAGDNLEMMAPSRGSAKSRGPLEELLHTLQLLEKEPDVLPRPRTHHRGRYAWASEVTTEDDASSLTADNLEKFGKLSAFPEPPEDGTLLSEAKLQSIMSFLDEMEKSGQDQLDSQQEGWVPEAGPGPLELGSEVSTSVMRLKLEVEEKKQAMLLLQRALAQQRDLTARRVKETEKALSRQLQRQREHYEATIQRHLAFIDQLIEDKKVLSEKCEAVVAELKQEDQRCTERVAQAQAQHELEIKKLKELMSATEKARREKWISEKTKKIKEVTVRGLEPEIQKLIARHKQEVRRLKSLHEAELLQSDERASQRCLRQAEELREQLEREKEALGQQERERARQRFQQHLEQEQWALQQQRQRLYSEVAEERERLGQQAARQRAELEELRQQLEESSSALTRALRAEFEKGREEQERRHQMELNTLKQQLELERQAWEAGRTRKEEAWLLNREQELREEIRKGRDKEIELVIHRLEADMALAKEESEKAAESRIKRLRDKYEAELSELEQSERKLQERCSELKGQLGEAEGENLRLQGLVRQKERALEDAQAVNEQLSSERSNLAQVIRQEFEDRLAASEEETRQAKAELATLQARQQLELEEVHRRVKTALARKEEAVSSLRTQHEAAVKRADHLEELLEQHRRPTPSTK
# UniProt Q6ZU80: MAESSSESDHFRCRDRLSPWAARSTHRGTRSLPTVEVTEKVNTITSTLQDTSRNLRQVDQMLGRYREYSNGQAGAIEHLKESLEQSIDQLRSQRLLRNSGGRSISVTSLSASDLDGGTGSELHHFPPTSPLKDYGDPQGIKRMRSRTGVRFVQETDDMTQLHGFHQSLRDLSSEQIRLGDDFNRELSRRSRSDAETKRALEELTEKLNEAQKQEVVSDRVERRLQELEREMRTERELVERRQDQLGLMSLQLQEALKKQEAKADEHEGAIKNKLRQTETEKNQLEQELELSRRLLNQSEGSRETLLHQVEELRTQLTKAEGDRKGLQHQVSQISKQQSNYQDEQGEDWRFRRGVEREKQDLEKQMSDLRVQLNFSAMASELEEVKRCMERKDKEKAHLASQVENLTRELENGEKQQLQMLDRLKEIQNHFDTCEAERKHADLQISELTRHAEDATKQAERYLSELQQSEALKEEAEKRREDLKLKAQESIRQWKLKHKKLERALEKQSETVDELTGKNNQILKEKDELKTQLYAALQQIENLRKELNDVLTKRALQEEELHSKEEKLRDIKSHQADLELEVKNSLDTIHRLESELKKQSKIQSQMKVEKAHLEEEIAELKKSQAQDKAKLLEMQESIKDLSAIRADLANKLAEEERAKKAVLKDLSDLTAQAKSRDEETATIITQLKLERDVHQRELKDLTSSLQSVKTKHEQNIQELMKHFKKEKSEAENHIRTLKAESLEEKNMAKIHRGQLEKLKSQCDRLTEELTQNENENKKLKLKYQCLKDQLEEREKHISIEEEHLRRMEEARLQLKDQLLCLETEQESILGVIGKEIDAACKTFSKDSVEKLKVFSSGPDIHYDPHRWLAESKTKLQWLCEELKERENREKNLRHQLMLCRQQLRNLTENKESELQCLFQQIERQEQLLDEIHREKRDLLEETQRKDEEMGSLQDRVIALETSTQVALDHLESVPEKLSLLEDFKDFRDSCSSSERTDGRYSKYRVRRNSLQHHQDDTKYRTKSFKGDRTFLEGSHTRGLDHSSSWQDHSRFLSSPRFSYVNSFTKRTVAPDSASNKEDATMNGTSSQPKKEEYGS
# UniProt P28907, whole entry, looked up: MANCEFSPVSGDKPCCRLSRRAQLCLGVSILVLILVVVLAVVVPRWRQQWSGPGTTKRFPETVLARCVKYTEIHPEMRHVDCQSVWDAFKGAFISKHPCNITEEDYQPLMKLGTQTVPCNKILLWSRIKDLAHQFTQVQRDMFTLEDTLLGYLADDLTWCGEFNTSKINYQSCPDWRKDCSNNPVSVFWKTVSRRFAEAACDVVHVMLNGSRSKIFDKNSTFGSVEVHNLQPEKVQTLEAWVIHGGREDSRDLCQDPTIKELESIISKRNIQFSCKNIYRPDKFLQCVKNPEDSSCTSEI
# Compound: CC1Cc2ccccc2N1C(=O)C1CCCN(C1)C(=O)CCl (mixture of isomers) [TRIM25 ligand 11 (diastereomer mixture)]
# Test: probe-labelled cysteine peptide fold change vs DMSO (competition) (log2 fold change); higher = less target engagement (more negative = stronger competition)
# Conditions: THP-1, incubation time: 4 h
# 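Also: competitive chemoproteomic profiling in live THP-1 cells with an iodoacetamide desthiobiotin (IA-DTB) probe, comparing probe-labelled peptide intensities in compound-treated cells against DMSO-treated controls.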
Target,probe-labelled cysteine peptide fold change (10 µM),probe-labelled cysteine peptide fold change (50 µM)
CD40_P25942_111_GTSETDTICTCEEGWHCTSEACESCVLHR (UniProt P25942),-0.0143,0.305
CENPT_Q96BT3_495_YFQHLCDDLEVFAAHAGR (UniProt Q96BT3),0.0247,0.175
CCT5_P48643_493_EMNPALGIDCLHK (UniProt P48643),-0.0607,-0.24
CERS6_Q6ZMG9_380_NPHTATTTNGTSGTNGYLLTGSCSMDD (UniProt Q6ZMG9),0.168,-0.402
CDK12_Q9NYV4_1039_MAPPDLPHWQDCHELWSK (UniProt Q9NYV4),-0.00591,-0.241
CCT5_P48643_181_VVNSCHR (UniProt P48643),0.109,0.0213
CDC16_Q13042_163_EALKLDVYCFEAFDLLTSHHMLTAQEEK (UniProt Q13042),-0.0995,-0.0304
CENPL_Q8N0S6_286_TPGEVTQEEVDLFMDCLYSHFHR (UniProt Q8N0S6),0.0896,-0.281
CEP192_Q8TEP8_352_GIVPDLNSECASK (UniProt Q8TEP8),0.00919,-0.208
CEP250_Q9BV73_1557_QLVTLECLALELEENHHK (UniProt Q9BV73),-0.04,0.00998
CENPV_Q7Z7K6_240_SNPGGFGIAPHCLDEGTVR (UniProt Q7Z7K6),-0.0934,-0.194
CDYL_Q9Y232_515_LTAQEACGK (UniProt Q9Y232),0.0959,0.0586
CCT4_P50991_337_EDIEFICK (UniProt P50991),0.306,0.127
CDK5_Q00535_117_GLGFCHSR (UniProt Q00535),0.0521,0.0715
CDCA2_Q69YH5_979_SFCISTLANTK (UniProt Q69YH5),-0.193,-0.305
CEP170_Q5SW79_235_QVEEQSAAANEEVLFPFCR (UniProt Q5SW79),0.0682,0.0541
CENPF_P49454_1188_NQCNFKPQMDLEVK (UniProt P49454),-0.136,-0.225
CDK1_P06493_119_SYLYQILQGIVFCHSR (UniProt P06493),-0.124,-0.124
CCT8_P50990_347_LTPPVLEEMGHCDSVYLSEVGDTQVVVFKHEKEDGAISTIVLR (UniProt P50990),-0.525,-0.451
CD53_P19397_170_KVEGCYAK (UniProt P19397),0.00731,0.045
CCT7_Q99832_326_RTMMACGGSIQTSVNALSADVLGR (UniProt Q99832),0.112,0.227
CCT4_P50991_379_ITGCASPGK (UniProt P50991),-0.00035,0.0945
CENPP_Q6IPU0_22_ACEDPPAPWEEK (UniProt Q6IPU0),0.0266,-0.0214

Target,probe-labelled cysteine peptide fold change (10 µM),probe-labelled cysteine peptide fold change (50 µM)
CENPF_P49454_1790_HDVHQICDK (UniProt P49454),-0.11,-0.217
CEP350_Q5VT06_413_VAQLSSTECR (UniProt Q5VT06),-0.033,0.0961
CEP350_Q5VT06_2910_RVTQQPCETLLAVPHTAEEVEILVHNAAEELWK (UniProt Q5VT06),0.158,-0.0928
CDCA2_Q69YH5_792_DCHCLGDVLIENTK (UniProt Q69YH5),0.0212,-0.255
CD58_P19256_161+166_GLIMYSWDCPMEQCK (UniProt P19256),-0.011,-0.0315
CD70_P32970_8_PEEGSGCSVR (UniProt P32970),-0.115,-0.0805
CDC23_Q9UJX2_500_YIQDIYSCGEIVEHLEESTAFR (UniProt Q9UJX2),0.00317,-0.14
CDC27_P30260_503_EAINILSHLPSHHYNTGWVLCQIGR (UniProt P30260),0.0327,-0.0128
CDK2_P24941_177_APEILLGCK (UniProt P24941),0.0172,0.148
CDC45_O75419_267_HNHRNEDEENTLSVDCTR (UniProt O75419),0.198,0.147
CEP350_Q5VT06_1432_EVTEVLQEATCK (UniProt Q5VT06),-0.0584,-0.0971
CDC40_O60508_378_KVPYCVK (UniProt O60508),-0.493,-0.314
CENPC_Q03188_612_CSLSEPLESDEADLAK (UniProt Q03188),-0.00438,-0.19
CCT5_P48643_429+440_VVYGGGAAEISCALAVSQEADKCPTLEQYAMR (UniProt P48643),-0.229,-0.334
CDYL_Q9Y232_571_MELEQANERECEVLK (UniProt Q9Y232),-0.0968,-0.0996
CDK4_P11802_135_GLDFLHANCIVHR (UniProt P11802),0.0386,0.0843
CDC20_Q12834_313_VAEHHVATLSGHSQEVCGLR (UniProt Q12834),0.16,-0.0494
CDC42_P60953_105_WVPEITHHCPK (UniProt P60953),-0.0221,0.0288
CDK6_Q00534_15_ADQQYECVAEIGEGAYGK (UniProt Q00534),-0.0925,-0.233
CEP131_Q9UPN4_648_CEAVVAELK (UniProt Q9UPN4),-0.0153,-0.0343
CEP128_Q6ZU80_989_DSCSSSER (UniProt Q6ZU80),0.0392,-0.00849
CD180_Q99467_419_ECPQLELLDLAFTR (UniProt Q99467),-0.123,-0.275
CDC37_Q16543_336_CIDSGLWVPNSK (UniProt Q16543),0.000899,-0.0455

Target,probe-labelled cysteine peptide fold change (10 µM),probe-labelled cysteine peptide fold change (50 µM)
CDK5_Q00535_83_LTLVFEFCDQDLKK (UniProt Q00535),0.036,0.144
CELF2_O95319_201_AMHQSQTMEGCSSPIVVK (UniProt O95319),0.079,-0.396
CDC42BPA_Q5VT25_121_AETACFR (UniProt Q5VT25),0.369,0.236
CDC73_Q6P1J9_145_IEDEECVR (UniProt Q6P1J9),0.0862,0.104
CD93_Q9NPY3_53_LSAAEAQNHCNQNGGNLATVK (UniProt Q9NPY3),-0.148,-0.128
CDK16_Q00536_206_EIRLEHEEGAPCTAIR (UniProt Q00536),0.0245,-0.016
CENPF_P49454_2834_EECLSSQK (UniProt P49454),0.00823,0.152
CDK5_Q00535_94_YFDSCNGDLDPEIVK (UniProt Q00535),0.103,0.101
CEP128_Q6ZU80_433_EIQNHFDTCEAER (UniProt Q6ZU80),0.0892,0.0924
CEP68_Q76N32_465_RPTCTESR (UniProt Q76N32),-0.0384,-0.0237
CCT7_Q99832_310_LPIGDVATQYFADRDMFCAGRVPEEDLKR (UniProt Q99832),-0.506,-0.303
CCT8_P50990_148+149_AHEILPNLVCCSAK (UniProt P50990),0.0728,0.0614
CCT8_P50990_36_NIQACK (UniProt P50990),0.102,0.046
CDC27_P30260_126_SHDDIVTEFGDSACFTLSLLGHVYCK (UniProt P30260),0.022,-0.0367
CD38_P28907_275_NIQFSCK (UniProt P28907),0.0138,-0.0974
CD38_P28907_119_LGTQTVPCNK (UniProt P28907),-0.012,0.0468
CDKN2C_P42773_141_GDTACDLAR (UniProt P42773),0.0352,0.106
CD37_P11049_217_HSADICAVPAESHIYR (UniProt P11049),0.00639,-0.177
CENPV_Q7Z7K6_154_HTGGCHCGAVR (UniProt Q7Z7K6),0.106,0.301
CCT7_Q99832_364_YNFFTGCPK (UniProt Q99832),-0.0181,-0.0808
CEP164_Q9UPV0_437_ISEHLLDVDVLSPVLGGACR (UniProt Q9UPV0),0.16,0.047
